PubChem BioAssay AID602196 – INSERM, 2012
Purpose: 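Knock-downs that protect lung cancer cells from cisplatin or sensitise them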. System: human A549 lung cancer cells. Reagents: siRNA pair against human genes. Time to read-out: 48 h transfection before cisplatin; time from cisplatin to read-out not stated. Treatment: cisplatin at a dose killing half of control-siRNA cells; exact dose and duration not given. Read-out: 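Cisplatin cell death as a shift from the 50% death seen with control siRNA; siRNAs toxic or growth-blocking alone scored 0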. Scale: two-siRNA summed score (-2 to +2): higher = both siRNAs protect from cisplatin killing; -2 means both sensitise; mean protection from cisplatin (shift in death) and protection from cisplatin (shift in death), siRNA C: higher = protection from cisplatin killing. Active means: 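siRNAs harmful alone (LDH or WST-1) get 0; others get +1 for less and -1 for more cisplatin killing; genes are active when the two siRNAs give the same sign, summing to ±2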. Meaning of the calls: active = both siRNAs shift cisplatin killing the same way; inactive = no consistent shift, or siRNA harmful alone.
The whole screen tested about 23,000 reagents; this is an unselected part. Of all reagents, 455 (2%) are marked active. 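Active includes both protection and sensitisation; some change values fall well beyond the stated -50 to +50 range.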 The numbers tell different reagents against one gene apart. Not all columns of the deposit are shown. Reagent sequences are not shown. Not given: the amount of reagent.

Gene,reagent no.,two-siRNA summed score (-2 to +2),mean protection from cisplatin (shift in death) (%),"protection from cisplatin (shift in death), siRNA C (%)",activity call
TRIM4,1,1,21.5,28.3,inactive
LINC01101,1,-1,-7.6,6.4,inactive
CELA2B,1,-1,-12.5,-7.1,inactive
SLC2A3,1,0,-1.4,-6.5,inactive
YPEL3,1,0,-3.2,-6.6,inactive
CNOT1,1,0,13.8,5.5,inactive
MAP3K2,1,1,17,27.2,inactive
LOC146713,1,0,0.2,0.6,inactive
CTDSP2,1,0,-5.7,-4.8,inactive
PIK3C2A,1,0,-0.6,-4.4,inactive
PDSS2,1,0,7.4,10.3,inactive
SPAG4,1,0,1,-2.2,inactive
CD68,1,0,-0.3,-7.8,inactive
TUBG2,1,0,9.4,-9,inactive
KLRG1,1,-1,-4.1,6.2,inactive
FLJ13815,1,0,9.5,9.1,inactive
CCDC178,1,0,7.1,10.3,inactive
LOC442371,1,0,2.7,4.3,inactive
LINC00467,1,0,-6,-5.9,inactive
LOC442158,1,0,5.6,7.5,inactive
KRTAP13-4,1,0,29.8,2.7,inactive
HEXD,1,0,24.5,25.3,inactive
PRUNE2,1,0,4,6.9,inactive
PRUNE2,2,0,12.5,9.7,inactive
USF3,1,1,11.7,8.5,inactive
DNPH1,1,0,4.5,2.3,inactive
POLG2,1,2,23,17,active
RAD54B,1,-1,-3,-30.3,inactive
RAD54B,2,0,11.9,12.9,inactive
LOC340359,1,1,14.2,7.2,inactive

The list goes on, starting with the last 7 of the part before.
Gene,reagent no.,two-siRNA summed score (-2 to +2),mean protection from cisplatin (shift in death) (%),"protection from cisplatin (shift in death), siRNA C (%)",activity call
PRUNE2,2,0,12.5,9.7,inactive
USF3,1,1,11.7,8.5,inactive
DNPH1,1,0,4.5,2.3,inactive
POLG2,1,2,23,17,active
RAD54B,1,-1,-3,-30.3,inactive
RAD54B,2,0,11.9,12.9,inactive
LOC340359,1,1,14.2,7.2,inactive
MLLT10,1,1,18.3,7.1,inactive
NOTCH4,1,1,3,-9.9,inactive
ZNF526,1,0,0,10.2,inactive
NXPH2,1,1,23,25.8,inactive
AKR1A1,1,-1,-20.2,-18.2,inactive
CAV2,1,0,10.9,14.5,inactive
BTN2A3P,1,-1,-16.6,-34.3,inactive
LOC390529,1,1,12.9,19.5,inactive
MFHAS1,1,-1,0.2,19.9,inactive
HYLS1,1,0,8.9,22.8,inactive
RNF152,1,1,8.2,5.5,inactive
ATP5IF1,1,0,3.7,-0.2,inactive
CDT1,1,0,-2.1,1.7,inactive
KDM5B,1,-1,-13.5,-7.2,inactive
NKX6-2,1,0,-3.3,8,inactive
RASGRP2,1,0,10.5,26.7,inactive
RSPH10B,1,0,-11,-4,inactive
PLD5,1,0,2.7,1.2,inactive
DNASE1,1,0,1.5,7.2,inactive
ZNF142,1,0,17.9,26.4,inactive
TMTC4,1,0,5.7,5.9,inactive
CHST12,1,0,-9.9,-20.4,inactive
LOC389651,1,1,9.4,14.5,inactive
DDX5,1,1,7.1,-7.1,inactive
UTP18,1,0,-4.2,-10.7,inactive
AP4E1,1,0,3.1,4.8,inactive
DSP,1,0,7.3,24.5,inactive
